Results are given in words; binding and its absence hold for the method and conditions named. In cells and extracts the contact can be indirect. Some results given as binding are weak or reduced against the parent protein; the word gives no strength. For some assays here: Sequences can lack the tags named with a protein.

The chains behind the UniProt entries cited, without tags or fusion partners.
UniProt Q13485: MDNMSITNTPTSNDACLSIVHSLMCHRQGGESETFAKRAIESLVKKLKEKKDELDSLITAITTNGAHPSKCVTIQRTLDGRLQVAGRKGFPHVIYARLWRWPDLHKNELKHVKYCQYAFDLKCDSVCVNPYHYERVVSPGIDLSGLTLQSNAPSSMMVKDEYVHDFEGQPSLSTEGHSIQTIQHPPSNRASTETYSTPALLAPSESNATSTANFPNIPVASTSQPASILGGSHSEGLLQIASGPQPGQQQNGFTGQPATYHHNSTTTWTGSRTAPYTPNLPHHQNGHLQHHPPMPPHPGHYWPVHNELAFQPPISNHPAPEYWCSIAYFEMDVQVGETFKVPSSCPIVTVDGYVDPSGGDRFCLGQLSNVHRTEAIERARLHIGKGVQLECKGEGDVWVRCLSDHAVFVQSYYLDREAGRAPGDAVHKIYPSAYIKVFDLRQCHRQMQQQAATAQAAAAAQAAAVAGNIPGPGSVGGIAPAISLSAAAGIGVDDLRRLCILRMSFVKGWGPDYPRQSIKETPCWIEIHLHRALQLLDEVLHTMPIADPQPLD
UniProt Q15797: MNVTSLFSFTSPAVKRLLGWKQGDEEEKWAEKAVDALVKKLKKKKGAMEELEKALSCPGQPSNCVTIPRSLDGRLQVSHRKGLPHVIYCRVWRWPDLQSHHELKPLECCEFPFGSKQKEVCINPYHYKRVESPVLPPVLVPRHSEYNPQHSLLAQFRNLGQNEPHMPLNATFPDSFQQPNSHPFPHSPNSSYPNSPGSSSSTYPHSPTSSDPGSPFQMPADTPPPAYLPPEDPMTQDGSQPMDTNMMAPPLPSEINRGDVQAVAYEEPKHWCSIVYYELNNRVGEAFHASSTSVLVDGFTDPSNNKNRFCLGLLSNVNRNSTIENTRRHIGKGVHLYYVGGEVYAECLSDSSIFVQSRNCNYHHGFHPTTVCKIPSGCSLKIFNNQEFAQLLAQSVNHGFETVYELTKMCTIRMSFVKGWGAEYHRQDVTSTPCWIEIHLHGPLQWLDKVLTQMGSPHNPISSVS

One test deals with MYC-tagged Smad4 (UniProt Q13485). The test can be described thus: co-IP; 293T cells transfected with MYC-Smad4, FLAG-Smad1, HA-BMPRIAca and FLAG-Smad6 WT, R81A or R81K; IP with anti-MYC antibody, blot for Smad1 and pSmad1.
Test [1] addresses Smad4, endogenous in HaCaT cells (human (endogenous in HaCaT)) (UniProt Q13485). Description: co-IP; endogenous Smad1 and Smad4 in BMP4-treated HaCaT cells transfected with increasing amounts of FLAG-Smad6 WT or R81A; IP with anti-Smad4 antibody (anti-GFP as control), blot for pSmad1.
The target of test [2] is T1, FLAG-tagged Smad6 R81A mutant (in HaCaT cells) (UniProt O35182).
T1 sequence: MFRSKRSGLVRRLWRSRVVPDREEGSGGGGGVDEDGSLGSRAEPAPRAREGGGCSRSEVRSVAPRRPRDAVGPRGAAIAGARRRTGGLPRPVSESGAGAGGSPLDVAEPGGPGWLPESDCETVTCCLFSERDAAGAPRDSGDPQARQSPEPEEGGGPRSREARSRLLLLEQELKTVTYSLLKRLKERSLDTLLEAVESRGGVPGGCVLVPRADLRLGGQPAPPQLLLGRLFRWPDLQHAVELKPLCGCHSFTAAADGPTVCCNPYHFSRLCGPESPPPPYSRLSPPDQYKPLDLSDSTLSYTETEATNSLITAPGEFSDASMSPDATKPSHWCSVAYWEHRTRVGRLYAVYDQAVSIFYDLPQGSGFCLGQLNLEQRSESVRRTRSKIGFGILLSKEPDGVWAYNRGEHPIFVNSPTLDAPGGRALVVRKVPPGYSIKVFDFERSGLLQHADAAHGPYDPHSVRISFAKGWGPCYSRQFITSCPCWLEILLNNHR
The test can be described thus: co-IP; HaCaT cells transfected with FLAG–Smad6 WT or R81A, BMP4 for 60 min; IP with anti-FLAG antibody (anti-GFP as control), blot for Smad1 and pSmad1; IP lysis buffer with 150-mM NaCl, 1% NP-40.

Test [3] concerns the target T2, FLAG-tagged Smad6^331–495 (MH2 domain, C-terminal residues) (UniProt O35182).
T2 sequence: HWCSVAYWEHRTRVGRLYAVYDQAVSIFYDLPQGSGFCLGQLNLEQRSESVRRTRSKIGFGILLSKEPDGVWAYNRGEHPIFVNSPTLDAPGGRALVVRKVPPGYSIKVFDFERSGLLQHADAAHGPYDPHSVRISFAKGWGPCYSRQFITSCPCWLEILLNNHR
The test can be described thus: co-IP; HA-Smad6^1–330 (WT or R81A) coexpressed with FLAG-Smad6^331–495 in 293T cells, also in 293T cells stably expressing control shRNA or shRNA targeting PRMT1.

As for “FLAG-tagged Smad1, phosphorylated (from 293T cells coexpressing BMP receptors) (from UniProt Q15797 1-465)”, the binding entry with MYC-tagged Smad4 is recorded as “binds”.

Turning to “Smad1, endogenous in HaCaT cells (from UniProt Q15797 1-465)”, the binding result in test [1] was “binds”; in test [2], “no binding”.

B1: HA-tagged Smad6^1–330 WT (MH1 domain, N-terminal 330 amino acids) (domain or fragment, UniProt O35182 1-330)
chain: MFRSKRSGLVRRLWRSRVVPDREEGSGGGGGVDEDGSLGSRAEPAPRAREGGGCSRSEVRSVAPRRPRDAVGPRGAAIAGRRRRTGGLPRPVSESGAGAGGSPLDVAEPGGPGWLPESDCETVTCCLFSERDAAGAPRDSGDPQARQSPEPEEGGGPRSREARSRLLLLEQELKTVTYSLLKRLKERSLDTLLEAVESRGGVPGGCVLVPRADLRLGGQPAPPQLLLGRLFRWPDLQHAVELKPLCGCHSFTAAADGPTVCCNPYHFSRLCGPESPPPPYSRLSPPDQYKPLDLSDSTLSYTETEATNSLITAPGEFSDASMSPDATKPS
For the molecule B1, in test [3], the binding entry is on record as “binds”.

B2: HA-tagged Smad6^1–330 R81A mutant (domain or fragment, UniProt O35182 1-330)
chain: MFRSKRSGLVRRLWRSRVVPDREEGSGGGGGVDEDGSLGSRAEPAPRAREGGGCSRSEVRSVAPRRPRDAVGPRGAAIAGARRRTGGLPRPVSESGAGAGGSPLDVAEPGGPGWLPESDCETVTCCLFSERDAAGAPRDSGDPQARQSPEPEEGGGPRSREARSRLLLLEQELKTVTYSLLKRLKERSLDTLLEAVESRGGVPGGCVLVPRADLRLGGQPAPPQLLLGRLFRWPDLQHAVELKPLCGCHSFTAAADGPTVCCNPYHFSRLCGPESPPPPYSRLSPPDQYKPLDLSDSTLSYTETEATNSLITAPGEFSDASMSPDATKPS
Consider B2, for which the binding entry in test [3] is reported as “binds”.

For the origin of these results see PMC8050389.
